This test has as its system P388 leukemia ip, CD2F1 mice, survival T/C. Briefly: NCI In Vivo Anticancer Drug Screen. Data for tumor model P388 Leukemia (intraperitoneal) in CD2F1 (CDF1) mice. Conditions: T/C endpoint: median survival time, higher T/C = longer survival.
Setting [1] is: dose: 50.0 mg/kg/injection, schedule: Q01DX005 (ip), vehicle: saline.
[2] abbreviates: dose: 100.0 mg/kg/injection, schedule: Q01DX005 (ip), vehicle: saline.
The mark [3] stands for this setting: dose: 200.0 mg/kg/injection, schedule: Q01DX005 (ip), vehicle: saline.
Setting [4] is: dose: 200.0 mg/kg/injection, schedule: Q01DX009 (ip), vehicle: Klucel (hydroxypropylcellulose) (HPC).
[5] abbreviates: dose: 120.0 mg/kg/injection, schedule: Q01DX005 (ip), vehicle: saline.
[6] abbreviates: dose: 240.0 mg/kg/injection, schedule: Q01DX005 (ip), vehicle: saline.
The mark [7] stands for this setting: dose: 200.0 mg/kg/injection, schedule: Q01DX009 (ip), vehicle: saline.
Setting [8] is: dose: 100.0 mg/kg/injection, schedule: Q04DX003 (ip), vehicle: saline with Tween-80.
Where [9] appears, read: dose: 200.0 mg/kg/injection, schedule: Q04DX003 (ip), vehicle: saline with Tween-80.
[10] abbreviates: dose: 400.0 mg/kg/injection, schedule: Q04DX003 (ip), vehicle: saline with Tween-80.
Where [11] appears, read: dose: 50.0 mg/kg/injection, schedule: Q01DX009 (ip), vehicle: saline with Tween-80.
[12] abbreviates: dose: 12.5 mg/kg/injection, schedule: Q01DX009 (ip), vehicle: saline with Tween-80.
[13] abbreviates: dose: 25.0 mg/kg/injection, schedule: Q01DX009 (ip), vehicle: saline with Tween-80.
The mark [14] stands for this setting: dose: 100.0 mg/kg/injection, schedule: Q01DX009 (ip), vehicle: saline with Tween-80.
Where [15] appears, read: dose: 200.0 mg/kg/injection, schedule: Q01DX009 (ip), vehicle: saline with Tween-80.

The list is a part of this screen's results and no random one: it is rich in T/C values a quarter to a half above the control, in often repeated tests (any T/C) and in doses without a T/C. Other doses and runs of a compound stand elsewhere. T/C: endpoint of the treated group in % of that of the vehicle group. Some doses have a count of surviving animals in place of a T/C: the source holds a T/C of zero for them, seemingly a mark for toxic or unscored doses. Some doses without a T/C left all or most animals alive at the check, yet need not have been tolerated: the source hardly ever lists a survival T/C far under the control, and the zero likely stands for such cases as well. Survivors were counted at the toxicity check, usually on the fifth day, unless a day is given; later deaths do not show. Schedule codes are those of the source, read here as Q, the interval in days (D) or hours (H), X, the number of doses. Some doses were run more than once; the values are given in rising order. For survival time, the PubChem record calls one and a half times the control and up active, and a quarter to a half above the control has no call in these data; cut-offs in other NCI protocols can differ. Some T/C values are followed by the survivors on the day toxicity was checked, most often the fifth; without a count, all were alive then.

For `Cc1c2c(c(O)c3c(O)cccc13)C(=O)C1(O)C(O)=C(C(=O)NCNc3ccc(C(N)=O)cn3)C(=O)C(N(C)C)C1C2` (stereo not given), the T/C (dose: 12.5 mg/kg/injection, schedule: Q01DX005 (ip), vehicle: saline) was 136 % of control and the T/C (dose: 25.0 mg/kg/injection, schedule: Q01DX005 (ip), vehicle: saline) was 136 % of control. For the same compound, the survivor count is reported as 6 of 6 under setting [1], 5 of 6 under setting [2] and 0 of 6 under setting [3].
`C=CCN=C(NC#N)SC`: the survivor count under setting [4] is given as 5 of 6.
As for `COc1ccccc1C(=O)C(CN(C)C)CN(C)C`, the survivor count was 5 of 6 (dose: 15.0 mg/kg/injection, schedule: Q01DX005 (ip), vehicle: saline); 0 of 6 (dose: 30.0 mg/kg/injection, schedule: Q01DX005 (ip), vehicle: saline); 0 of 6 (dose: 60.0 mg/kg/injection, schedule: Q01DX005 (ip), vehicle: saline); 0 of 6 under setting [5]; 0 of 6 under setting [6].
`CCOc1ccc2c(c1)/C(=C\C=C\C1CC(C)C3CC(OCC)CCC3N1CC)CC(C)N2CC` (stereo not given): the T/C reads like this: (dose: 2.5 mg/kg/injection, schedule: Q01DX009 (ip), vehicle: saline + alcohol) 127 % of control; (dose: 5.0 mg/kg/injection, schedule: Q01DX009 (ip), vehicle: saline + alcohol) 137 % of control.
As for `CC1=NN(c2cc(S(=O)(=O)O)ccc2Cl)C(=O)C1N=Nc1ccccc1` (stereo not given), the survivor count under setting [7] was 3 of 6.
Take `NC(N)=O.NC(N)=O.NC(N)=O.NC(N)=O.NC(N)=O.NC(N)=O.[O-][Cl+3]([O-])([O-])O.[V]`: the survivor count under setting [8] is listed as 6 of 6, the survivor count under setting [9] is listed as 6 of 6 and the survivor count under setting [10] is 1 of 6.
As to `CC(C)=C(C#N)N(C)C(C)(C)C`, under setting [7], the survivor count is on record as 0 of 6.
For the compound `Cc1cc(N(C)C)c2ccc3c(ccc4c(N(C)C)cc(C)nc43)c2n1`, the survivor count under setting [11] was 6 of 6.
For the compound `CC(C)CC(NC(=O)C(Cc1ccccc1)NC(=O)OCc1ccccc1)C(=O)O` (stereo not given), the survivor count (dose: 200.0 mg/kg/injection, schedule: Q01DX005 (ip), vehicle: saline with Tween-80) is 5 of 6.
In the case of `[Cl][Pd][Cl].[NH-]C(CO)C(=O)O` (stereo not given), the survivor count under setting [2] was 3 of 6 and the survivor count under setting [3] is recorded as 4 of 6.
Regarding `OC1(c2ccccc2)CCN(c2c3ccccc3nc3ccccc23)CC1`, the T/C (dose: 400.0 mg/kg/injection, schedule: Q04DX002 (ip), vehicle: Klucel (hydroxypropylcellulose) (HPC)) was 128 % of control.
As to `Cn1c2ccccc2c2nnc(N/N=C/c3ccccn3)nc21`, the T/C (dose: 400.0 mg/kg/injection, schedule: Q04DX002 (ip), vehicle: saline with Tween-80) was 127 % of control.
As to `CC(C)Cn1cnc2c(=S)nc(N)[nH]c21`, the T/C runs as follows: under setting [9], 131 % of control; under setting [10], 145 % of control.
Take `C/C(=N\N=C(/[Se])N1CCCCCC1)c1ccccn1`: the survivor count runs as follows: (dose: 100.0 mg/kg/injection, schedule: Q04DX003 (ip), vehicle: Klucel (hydroxypropylcellulose) (HPC)) 2 of 6 and 6 of 6; (dose: 400.0 mg/kg/injection, schedule: Q04DX003 (ip), vehicle: Klucel (hydroxypropylcellulose) (HPC)) 2 of 6.
For `CC(/C=C/c1ccccc1)=N\Nc1ccc(Cl)cc1Cl`, the survivor count under setting [4] was 2 of 6.
As for `C[OH2+].[Cl][Cu+].[Cl][Cu+].[NH-]CCC([OH2+])CC[NH-]`, the survivor count runs as follows: (dose: 12.5 mg/kg/injection, schedule: Q01DX005 (ip), vehicle: Klucel (hydroxypropylcellulose) (HPC)) 0 of 6; (dose: 25.0 mg/kg/injection, schedule: Q01DX005 (ip), vehicle: Klucel (hydroxypropylcellulose) (HPC)) 0 of 6; (dose: 50.0 mg/kg/injection, schedule: Q01DX005 (ip), vehicle: Klucel (hydroxypropylcellulose) (HPC)) 0 of 6; (dose: 100.0 mg/kg/injection, schedule: Q01DX005 (ip), vehicle: Klucel (hydroxypropylcellulose) (HPC)) 0 of 6; (dose: 200.0 mg/kg/injection, schedule: Q01DX005 (ip), vehicle: Klucel (hydroxypropylcellulose) (HPC)) 0 of 6.
As to `CCCCCOP(=O)(N=[N+]=[N-])OCCCCC`, the survivor count (dose: 3.12 mg/kg/injection, schedule: Q01DX009 (ip), vehicle: saline with Tween-80) was 0 of 6; the survivor count (dose: 6.25 mg/kg/injection, schedule: Q01DX009 (ip), vehicle: saline with Tween-80) is listed as 0 of 6; the survivor count under setting [12] is 0 of 6; the survivor count under setting [13] is recorded as 0 of 6; the survivor count under setting [11] is 0 of 6; the survivor count under setting [14] is reported as 0 of 6. In addition, under setting [15], the survivor count was 0 of 6.
With `COc1ccc2cc3[n+](c(CC(=O)O)c2c1OC)CCc1cc2c(cc1-3)OCO2`, the T/C (dose: 20.0 mg/kg/injection, schedule: Q01DX009 (ip), vehicle: water) was 132 % of control [5 of 6 alive].
Regarding `Cn1/c(=N\NC(=O)c2ccncc2)sc2ccccc21`, the survivor count (dose: 50.0 mg/kg/injection, schedule: Q01DX009 (ip), vehicle: Klucel (hydroxypropylcellulose) (HPC)) is given as 6 of 6; the survivor count (dose: 100.0 mg/kg/injection, schedule: Q01DX009 (ip), vehicle: Klucel (hydroxypropylcellulose) (HPC)) is 5 of 6; the survivor count under setting [4] is listed as 0 of 6.
Take `CC(=O)OC1CC2C(C)(C)OC(=O)C=CC2(C)C2CCC3(C)C(c4ccoc4)C(=O)C4OC43C12C` (stereo not given): where the note is “dose: 120.0 mg/kg/injection, schedule: Q01DX005 (ip), vehicle: Klucel (hydroxypropylcellulose) (HPC)”, the survivor count is given as 5 of 5.
`COc1ccc2c(c1OC)OCC(CN(C)C)C2=O` (stereo not given): the T/C under setting [5] is 145 % of control. Moreover, the survivor count under setting [6] is 1 of 6.
For the compound `O=S(=O)(OI(O)c1ccccc1)c1ccc(Cl)cc1`, the survivor count is, setting by setting: (dose: 100.0 mg/kg/injection, schedule: Q01DX009 (ip), vehicle: water) 4 of 6; (dose: 200.0 mg/kg/injection, schedule: Q01DX009 (ip), vehicle: water) 0 of 6.
Take `CCC1CN2CCc3cc(OC)c(OC)cc3C2CC1C#N` (stereo not given): the survivor count is recorded as 5 of 6 under setting [14] and 3 of 6 under setting [15].
Take `COC(=O)c1nc(-c2ccc3c(n2)C(=O)C(N)=C(OC)C3=O)c(N)c(-c2ccc(OC)c(OC)c2O)c1C`: the T/C is, setting by setting: under setting [12], 137 % of control; under setting [13], 129 % of control; under setting [8], 140 % of control. In addition, the survivor count is, setting by setting: under setting [13], 6 of 6; under setting [11], 6 of 6; under setting [14], 6 of 6; under setting [8], 6 of 6; (dose: 150.0 mg/kg/injection, schedule: Q04DX003 (ip), vehicle: saline with Tween-80) 6 of 6; under setting [9], 6 of 6. Also, the survivor count under setting [10] is reported as 1 of 6.
As for `C/C(=C(/O)c1ccc(Cl)cc1)c1nc2ccc(Cl)cc2[nH]c1=O`, the survivor count (dose: 240.0 mg/kg/injection, schedule: Q01DX005 (ip), vehicle: Klucel (hydroxypropylcellulose) (HPC)) was 6 of 6.
Consider `CN1CC[N+](C)(Cc2ccc(C[N+]3(C)CC[N+](C)(Cc4ccc(CCl)cc4)CC3)cc2)CC1` (stereo not given), for which the survivor count is 2 of 6 (dose: 100.0 mg/kg/injection, schedule: Q04DX003 (ip), vehicle: saline); 0 of 6 (dose: 200.0 mg/kg/injection, schedule: Q04DX003 (ip), vehicle: saline); 0 of 6 (dose: 400.0 mg/kg/injection, schedule: Q04DX003 (ip), vehicle: saline).
For `COc1ccc(CCNCC(O)c2ccc(C)s2)cc1OC` (stereo not given), the survivor count under setting [7] was 2 of 6.
In the case of `NC(N)=NCCCC(N)C(=O)N1CCCC1C(=O)N1CCCC1C(=O)NC(CCCN=C(N)N)C(=O)O` (stereo not given), the survivor count is given as 3 of 6 under setting [1], 1 of 6 under setting [2] and 0 of 6 under setting [3].

Values taken from PubChem BioAssay AID330 (DTP/NCI, 2004).
